Measured values: patent US20080274118A1 (Novartis, published 2008)
These are yes or no findings as the source states them, for the method shown. Some binding calls cover weakened binding; strength is not graded here. Values belong to the binder of their own block, whether it stands above or below them.

Sequences of proteins named here, by UniProt entry; tags and fusion partners are left off. A change or cut given only in a name is not applied to a line headed by its entry.
UniProt P25942: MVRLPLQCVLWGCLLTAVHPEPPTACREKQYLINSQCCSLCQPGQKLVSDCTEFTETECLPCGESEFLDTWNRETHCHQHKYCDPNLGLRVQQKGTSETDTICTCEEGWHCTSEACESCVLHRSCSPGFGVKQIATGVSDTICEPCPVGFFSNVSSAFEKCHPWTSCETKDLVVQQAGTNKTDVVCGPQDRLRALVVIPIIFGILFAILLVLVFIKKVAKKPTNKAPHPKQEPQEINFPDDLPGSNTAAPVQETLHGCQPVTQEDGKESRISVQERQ

Target: human CD40, soluble or recombinant (ELISA, Biacore) (human) (UniProt P25942)
Test: ELISA-type assays

binding: binds
B1: CHIR-12.12 fully human anti-CD40 monoclonal antibody (antibody, V domains shown)
VH: QVQLVESGGGVVQPGRSLRLSCAASGFTFSSYGMHWVRQAPGKGLEWVAVISYEESNRYHADSVKGRFTISRDNSKITLYLQMNSLRTEDTAVYYCARDGGIAAPGPDYWGQGTLVTVSS
VL: DIVMTQSPLSLTVTPGEPASISCRSSQSLLYSNGYNYLDWYLQKPGQSPQVLISLGSNRASGVPDRFSGSGSGTDFTLKISRVEAEDVGVYYCMQARQTPFTFGPGTKVDIRR
notes: also called 153.8E2.D10.D6.12.12

binding: binds
B2: CHIR-5.9 fully human anti-CD40 monoclonal antibody (antibody, V domains shown)
VH: EVQLVQSGAEVKKPGESLKISCKGSGYSFTSYWIGWVRQMPGKGLEWMGIIYPGDSDTRYSPSFQGQVTISADKSISTAYLQWSSLKASDTAMYYCARGTAAGRDYYYYYGMDVWGQGTTVTVSS
VL: AIVMTQPPLSSPVTLGQPASISCRSSQSLVHSDGNTYLNWLQQRPGQPPRLLIYKFFRRLSGVPDRFSGSGAGTDFTLKISRVEAEDVGVYYCMQVTQFPHTFGQGTRLEIKR
notes: also called mAb CHIR-5.9; 131.2F8.5.9
